In PubChem BioAssay AID248 (DTP/NCI, 2004):
The list is a part of this screen's results and no random one: it gathers tests that were run many times, whatever their T/C, doses with no T/C, and many T/C values between a quarter and a half above the control. Other doses and runs of a compound stand elsewhere. T/C: endpoint of the treated group in % of that of the vehicle group. Some doses have a count of surviving animals in place of a T/C: the source files T/C as zero there, which appears to mark a toxic dose or a test without result, not a measured value. Some survivor counts are full or nearly so, which does not show that the dose was tolerated: survival well below the control is almost never listed, so the zero probably covers shortened survival too. Counts of survivors are from the toxicity check (mostly the fifth day) where no day follows; animals may have died later. Schedule codes are those of the source, read here as Q, the interval in days (D) or hours (H), X, the number of doses. Some doses were run more than once; the results are listed from low to high. Some schedule codes hold Z or #, which are not explained here. For survival time, this PubChem deposit counts one and a half times the control or more as active, and values a quarter to a half above the control carry no call in these data; other NCI protocols may use other cut-offs.

System: L1210 leukemia ip in BDF1 mice, survival T/C
Assay: NCI In Vivo Anticancer Drug Screen. Data for tumor model L1210 Leukemia (intraperitoneal) in B6D2F1 (BDF1) mice
Settings: higher T/C = longer survival
[1] = T/C endpoint: mean survival time, dose: 100.0 mg/kg/injection, schedule: Q04DX003 (ip), vehicle: saline
[2] = T/C endpoint: mean survival time, dose: 200.0 mg/kg/injection, schedule: Q04DX003 (ip), vehicle: saline
[3] = T/C endpoint: mean survival time, dose: 400.0 mg/kg/injection, schedule: Q04DX003 (ip), vehicle: saline
[4] = T/C endpoint: mean survival time, dose: 400.0 mg/kg/injection, schedule: Q04DX003 (ip), vehicle: Klucel (hydroxypropylcellulose) (HPC)
[5] = T/C endpoint: mean survival time, dose: 100.0 mg/kg/injection, schedule: Q01DX009 (ip), vehicle: Klucel (hydroxypropylcellulose) (HPC)
[6] = T/C endpoint: mean survival time, dose: 200.0 mg/kg/injection, schedule: Q01DX009 (ip), vehicle: Klucel (hydroxypropylcellulose) (HPC)
[7] = T/C endpoint: mean survival time, dose: 400.0 mg/kg/injection, schedule: Q01DX009 (ip), vehicle: Klucel (hydroxypropylcellulose) (HPC)
[8] = T/C endpoint: mean survival time, dose: 300.0 mg/kg/injection, schedule: Q01DX001 (ip), vehicle: saline
[9] = T/C endpoint: mean survival time, dose: 100.0 mg/kg/injection, schedule: Q04DX003 (ip), vehicle: Klucel (hydroxypropylcellulose) (HPC)
[10] = T/C endpoint: mean survival time, dose: 200.0 mg/kg/injection, schedule: Q04DX003 (ip), vehicle: Klucel (hydroxypropylcellulose) (HPC)
[11] = T/C endpoint: mean survival time, dose: 400.0 mg/kg/injection, schedule: Q01DX001 (ip), vehicle: saline
[12] = T/C endpoint: mean survival time, dose: 400.0 mg/kg/injection, schedule: Q01DX009 (ip), vehicle: water

COC1OC(CN2CC2)C2OC(C)(C)OC12 (configuration not stated)
survivor count (T/C endpoint: mean survival time, dose: 150.0 mg/kg/injection, schedule: Q01DX001 (ip), vehicle: carboxymethylcellulose (CMC)): 2 of 6 | survivor count (T/C endpoint: mean survival time, dose: 300.0 mg/kg/injection, schedule: Q01DX001 (ip), vehicle: carboxymethylcellulose (CMC)): 0 of 6

CCC(C)C1NC(=O)C(NC(=O)c2c3nc4c(C(=O)NC5C(=O)NC(C(C)C)C(=O)N6CCCC6C(=O)N(C)CC(=O)N(C)C(C(C)C)C(=O)OC5C)ccc(C)c4oc-3c(C)c(=O)c2N)C(C)OC(=O)C(C(C)C)N(C)C(=O)CN(C)C(=O)C2CCCN2C1=O (configuration not stated)
T/C (T/C endpoint: mean survival time, dose: 0.05 mg/kg/injection, schedule: Q01DX009 (ip), vehicle: saline): 148 % of control | T/C (T/C endpoint: mean survival time, dose: 0.1 mg/kg/injection, schedule: Q01DX009 (ip), vehicle: saline): 125 % of control | survivor count (T/C endpoint: mean survival time, dose: 0.4 mg/kg/injection, schedule: Q01DX009 (ip), vehicle: saline): 4 of 6 | T/C (T/C endpoint: mean survival time, dose: 6.0 micrograms/kg/injection, schedule: Q01DX009 (ip), vehicle: saline): 132 % of control | T/C (T/C endpoint: mean survival time, dose: 12.5 micrograms/kg/injection, schedule: Q01DX009 (ip), vehicle: acetone): 131 % of control | T/C (T/C endpoint: mean survival time, dose: 12.5 micrograms/kg/injection, schedule: Q01DX009 (ip), vehicle: saline): 132 and 135 % of control | T/C (T/C endpoint: mean survival time, dose: 25.0 micrograms/kg/injection, schedule: Q01DX009 (ip), vehicle: saline): 140 % of control | survivor count (T/C endpoint: mean survival time, dose: 100.0 micrograms/kg/injection, schedule: Q01DX009 (ip), vehicle: saline): 6 of 6 | T/C (T/C endpoint: median survival time, dose: 50.0 micrograms/kg/injection, schedule: Q01DX009 (ip), vehicle: water): 136 % of control | T/C (T/C endpoint: median survival time, dose: 75.0 micrograms/kg/injection, schedule: Q04DX003 (ip), vehicle: water): 125 % of control | T/C (T/C endpoint: median survival time, dose: 150.0 micrograms/kg/injection, schedule: Q04DX003 (ip), vehicle: water): 134 % of control | T/C (T/C endpoint: median survival time, dose: 300.0 micrograms/kg/injection, schedule: Q04DX003 (ip), vehicle: water): 140 % of control | T/C (T/C endpoint: median survival time, dose: 800.0 micrograms/kg/injection, schedule: Q01DX001 (ip), vehicle: water): 140 % of control | survivor count (T/C endpoint: median survival time, dose: 1600.0 micrograms/kg/injection, schedule: Q01DX001 (ip), vehicle: water): 3 of 10

O=C(O)C(Br)CO (configuration not stated) (tested in a mixture with another compound)
survivor count (T/C endpoint: mean survival time, dose: 400.0 mg/kg/injection, schedule: Q01DX001 (ip), vehicle: acetone): 2 of 6

O=C(c1ccccc1)C1CCCC1
survivor count (T/C endpoint: mean survival time, dose: 400.0 mg/kg/injection, schedule: Q04DX002 (ip), vehicle: Klucel (hydroxypropylcellulose) (HPC)): 3 of 3

CN(/N=C/c1ccccc1)C(=S)Nc1ccccc1
T/C (T/C endpoint: mean survival time, dose: 125.0 mg/kg/injection, schedule: Q04DX003 (ip), vehicle: Klucel (hydroxypropylcellulose) (HPC)): 133 % of control

C#CCO
survivor count [1]: 0 of 6 | survivor count [2]: 0 of 6 | survivor count [3]: 0 of 6

O=c1c2cc([N+](=O)[O-])cc3c2-c2c4c(cc([N+](=O)[O-])cc14)c(O)c1cc([N+](=O)[O-])cc(c3=O)c21
T/C (T/C endpoint: mean survival time, dose: 264.0 mg/kg/injection, schedule: Q04DX003 (ip), vehicle: acetone): 139 % of control | T/C (T/C endpoint: mean survival time, dose: 400.0 mg/kg/injection, schedule: Q04DX003 (ip), vehicle: acetone): 126 and 132 % of control

CCCCCCCCCCCCNC(=O)CCl
survivor count [4]: 6 of 6

CC(C)CCC[C@@H](C)[C@H]1CC[C@H]2[C@@H]3CC=C4C[C@@H](OC(=O)Cc5ccc(N(CCCl)CCCl)cc5)CC[C@]4(C)[C@H]3CC[C@]12C
T/C (T/C endpoint: mean survival time, dose: 200.0 mg/kg/injection, schedule: Q01DX009 (oral), vehicle: other): 129 % of control | survivor count (T/C endpoint: mean survival time, dose: 800.0 mg/kg/injection, schedule: Q01DX009 (sc), vehicle: other): 6 of 6

COc1ccc(NC(=O)Oc2ccccn2)cc1
T/C (T/C endpoint: mean survival time, dose: 100.0 mg/kg/injection, schedule: Q01DX009 (ip), vehicle: carboxymethylcellulose (CMC)): 95, 97, 98, 113 % of control | survivor count (T/C endpoint: mean survival time, dose: 200.0 mg/kg/injection, schedule: Q01DX009 (ip), vehicle: carboxymethylcellulose (CMC)): 3 of 3 and 6 of 6 | survivor count (T/C endpoint: mean survival time, dose: 400.0 mg/kg/injection, schedule: Q01DX009 (ip), vehicle: carboxymethylcellulose (CMC)): 0 of 3 and 3 of 6

O=c1[nH][nH]c2ccccc12
survivor count (T/C endpoint: mean survival time, dose: 62.5 mg/kg/injection, schedule: Q01DX Z (ip), vehicle: other): 6 of 6

O=[N+]([O-])CC1(O)CCCCC1
survivor count [5]: 0 of 6

NC(=S)N/N=C1\COC(C(F)(F)F)(C(F)(F)F)C1
survivor count [6]: 3 of 6 | survivor count [7]: 0 of 6 | survivor count [4]: 5 of 6

CC1(C)OC2C(CO)OC(n3cnc4c(=O)[nH]cnc43)C2O1 (configuration not stated)
survivor count [8]: 0 of 6

O=C(O)c1ccc(N=Cc2ccccc2O)cc1.[Co]
survivor count (T/C endpoint: mean survival time, dose: 400.0 mg/kg/injection, schedule: Q01DX001 (ip), vehicle: other): 0 of 6

Cc1cc(C)c(N)c(C)n1
survivor count [9]: 1 of 6 | survivor count [10]: 0 of 6 | survivor count [4]: 0 of 6

O=[N+]([O-])c1ccc(NCCNC(c2ccccc2)(c2ccccc2)c2ccccc2)c([N+](=O)[O-])c1
survivor count [11]: 6 of 6

O=c1[nH]c2nccnc2[nH]1
survivor count (T/C endpoint: mean survival time, dose: 100.0 mg/kg/injection, schedule: Q01DX009 (ip), vehicle: water): 3 of 6 | survivor count [12]: 2 of 6

C=CCc1ccc(OC(=O)Nc2ccccc2C)c(OC)c1
survivor count [7]: 1 of 6

CCOC(=O)c1cc([N+](=O)[O-])c([N+](=O)[O-])cc1Cl
survivor count [9]: 6 of 6 | survivor count [10]: 6 of 6 | survivor count [4]: 2 of 6

C[N+](C)(CCCCCCCCCC[N+](C)(C)Cc1ccccc1)Cc1ccccc1
survivor count (T/C endpoint: mean survival time, dose: 12.5 mg/kg/injection, schedule: Q04DX003 (ip), vehicle: saline): 3 of 6 | survivor count (T/C endpoint: mean survival time, dose: 25.0 mg/kg/injection, schedule: Q04DX003 (ip), vehicle: saline): 1 of 6 | survivor count (T/C endpoint: mean survival time, dose: 50.0 mg/kg/injection, schedule: Q04DX003 (ip), vehicle: saline): 0 of 6 | survivor count [1]: 0 of 6 | survivor count [2]: 0 of 6 | survivor count [3]: 0 of 6

Cn1ccc(=O)c2cc([N+](=O)[O-])ccc21
survivor count [12]: 2 of 6 | survivor count (T/C endpoint: mean survival time, dose: 400.0 mg/kg/injection, schedule: Q04DX003 (ip), vehicle: saline with Tween-80): 1 of 3

OC1c2ccccc2C(c2ccccc2)C1c1ccccc1 (configuration not stated)
survivor count (T/C endpoint: mean survival time, dose: 100.0 mg/kg/injection, schedule: Q04DX003 (ip), vehicle: saline with Tween-80): 6 of 6

Cc1ccc2c(c1)SP(=S)(c1ccccc1)N2 (configuration not stated)
survivor count (T/C endpoint: mean survival time, dose: 35.0 mg/kg/injection, schedule: Q01DX Z (ip), vehicle: saline): 0 of 6 | survivor count (T/C endpoint: mean survival time, dose: 50.0 mg/kg/injection, schedule: Q01DX001 (ip), vehicle: saline): 0 of 6 | survivor count (T/C endpoint: mean survival time, dose: 50.0 mg/kg/injection, schedule: Q01DX Z (ip), vehicle: saline): 1 of 6 | survivor count (T/C endpoint: mean survival time, dose: 100.0 mg/kg/injection, schedule: Q01DX001 (ip), vehicle: saline): 0 of 6 | survivor count (T/C endpoint: mean survival time, dose: 200.0 mg/kg/injection, schedule: Q01DX001 (ip), vehicle: saline): 1 of 6 | survivor count [11]: 0 of 6

O=[N+]([O-])c1ncn(C2CCCCO2)c1Br (configuration not stated)
survivor count (T/C endpoint: mean survival time, dose: 400.0 mg/kg/injection, schedule: Q04DX003 (ip), vehicle: gum acacia): 2 of 6

CCCCCCCCCC(C)NC(=O)CCl (configuration not stated)
survivor count [5]: 6 of 6 | survivor count [6]: 6 of 6 | survivor count [7]: 1 of 6

CCCCCCC[As](C)(=O)O
survivor count [5]: 0 of 6 | survivor count [6]: 0 of 6 | survivor count [7]: 0 of 6

CS(=O)(=O)C(=C(N1CCCCC1)N1CCCCC1)S(=O)(=O)Cc1ccccc1
survivor count (T/C endpoint: mean survival time, dose: 400.0 mg/kg/injection, schedule: Q01DX009 (ip), vehicle: saline): 6 of 6

CC(C)N(CCSc1ncnc2nc[nH]c12)C(C)C
survivor count (T/C endpoint: mean survival time, dose: 150.0 mg/kg/injection, schedule: Q01DX001 (ip), vehicle: saline): 1 of 6 | survivor count [8]: 0 of 6
